According to paper PMC9482638:
These are yes or no findings as the source states them, for the method shown. In cells and extracts the contact can be indirect. Some entries that bind do so weakly or less than the wild type.

Amino acid sequences for entries named in this document (tags omitted). A change or cut given only in a name is not applied to a line headed by its entry. Chains listed by the source or under a name are the forms on record and can include a tag or linker.
mNeonGreen-tagged NRAS^Q61L (P01111, form named): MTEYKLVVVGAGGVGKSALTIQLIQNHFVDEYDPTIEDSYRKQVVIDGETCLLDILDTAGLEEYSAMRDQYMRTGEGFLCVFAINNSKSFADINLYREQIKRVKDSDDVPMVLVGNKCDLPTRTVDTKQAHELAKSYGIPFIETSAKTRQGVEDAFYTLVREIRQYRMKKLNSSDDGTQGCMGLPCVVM
mNeonGreen-tagged NRAS^G12D (P01111, form named): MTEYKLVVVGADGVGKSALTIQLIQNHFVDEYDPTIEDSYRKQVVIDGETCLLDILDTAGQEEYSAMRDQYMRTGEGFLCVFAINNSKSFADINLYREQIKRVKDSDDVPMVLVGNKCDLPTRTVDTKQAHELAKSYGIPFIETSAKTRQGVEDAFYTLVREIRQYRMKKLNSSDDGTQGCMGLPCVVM

Assays:
[1] = biological target: mNeonGreen-tagged NRAS^Q61L (UniProt P01111); assay: co-IP; mNeonGreen-tagged mutant RAS captured with mNeonGreen-Trap agarose from MM cell lysate in 0.5% CHAPS, 50 mM Tris pH 7.5, 150 mM NaCl, 2 h at 4 C; control beads in parallel; western blot
[2] = biological target: mNeonGreen-tagged NRAS^G12D (UniProt P01111); assay: as above

- binding [1]: binds
- binding [2]: binds
Substance: SLC3A2 (endogenous) (from UniProt P08195 1-529)
